# PubChem BioAssay AID1259308, NCATS – 2017
# Aim: 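Candidate targets for better recombinant protein yield in mammalian cells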 (primary screen)
# Cell system: human HEK293 embryonic kidney cells stably expressing firefly luciferase (HEK-CMV-Luc2-Hygro)
# Knock-down reagent: single siRNA against human genes, 0.8 pmol siRNA per well
# Timing: 72 h
# Detection: 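Luciferase light (ONE-Glo) measured on one replicate plate set and viability (CellTiter-Glo) on the other, scaled to a negative control siRNA, with robust z-scores and luciferase per cell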
# Direction: total luciferase, z-score and total luciferase, % of control: higher = more reporter protein produced; luciferase per cell, z-score: higher = more reporter output per viable cell
# Call rule: 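An siRNA counts as active if its total luciferase robust z-score exceeds 3; genes with two or more such siRNAs out of three were retested with fresh siRNAs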
# Meaning of the calls: active = raised luciferase; inactive = no rise
# In all, the deposit lists about 59,000 reagents; shown is a random part of them. Over the whole deposit, about 1,510 (2.6%) got an active call. 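Calls use total luciferase alone and ignore viability, so some active siRNAs may act by altering cell number.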 The numbers tell different reagents against one gene apart. Further read-outs or replicates are left out here.
Gene,siRNA no.,"total luciferase, z-score","total luciferase, % of control","luciferase per cell, z-score",activity call
STARD3,1,0.327,88.4,-0.225,inactive
STARD3,2,-0.541,71.1,0.0788,inactive
STARD3,3,0.334,88.5,0.956,inactive
GJA4,1,1.83,118,1.61,inactive
GJA4,2,-0.0622,80.6,0.14,inactive
GJA4,3,2.77,137,1.37,inactive
SCG3,1,0.276,87.4,0.138,inactive
SCG3,2,0.71,96,0.403,inactive
SCG3,3,-0.754,66.9,-0.742,inactive
HDLBP,1,-0.0401,81.1,0.179,inactive
HDLBP,2,-0.341,75.1,-1.06,inactive
HDLBP,3,-1.15,59,-1.07,inactive
SLC20A2,1,0.943,101,0.658,inactive
SLC20A2,2,-1.31,55.8,-2.11,inactive
SLC20A2,3,0.154,85,-0.244,inactive
BRF1,1,-2.43,33.5,-2.01,inactive
BRF1,2,0.266,87.2,-0.125,inactive
BRF1,3,-0.0808,80.3,0.302,inactive
COL6A1,1,0.882,99.4,0.638,inactive
COL6A1,2,0.728,96.4,2.77,inactive
COL6A1,3,0.473,91.3,0.289,inactive
LINC02909,1,0.919,100,0.00443,inactive
LINC02909,2,-0.375,74.4,-0.0187,inactive
LINC02909,3,-0.222,77.5,-0.501,inactive
ZNF177,1,0.827,98.3,0.619,inactive
ZNF177,2,0.323,88.3,-0.118,inactive
ZNF177,3,-1.74,47.3,-0.962,inactive
RAB33A,1,-1.26,56.9,-1.15,inactive
RAB33A,2,-1.03,61.4,-1.21,inactive
RAB33A,3,3.37,149,2.26,active
TMEM273,1,-0.379,74.3,-0.732,inactive
TMEM273,2,0.668,95.2,0.562,inactive
TMEM273,3,-1.07,60.7,-0.588,inactive
PPP6R2,1,0.865,99.1,0.00917,inactive
PPP6R2,2,0.826,98.3,0.254,inactive
PPP6R2,3,1.71,116,0.407,inactive
TRDMT1,1,0.214,86.1,-0.338,inactive
TRDMT1,2,0.4,89.8,-0.316,inactive
TRDMT1,3,0.833,98.5,0.656,inactive
RAD51AP2,1,-0.923,63.5,-1.15,inactive
RAD51AP2,2,-1.47,52.7,-1.28,inactive
RAD51AP2,3,-0.41,73.7,-0.812,inactive
TEX101,1,1.82,118,1.8,inactive
TEX101,2,1,102,1.31,inactive
TEX101,3,0.91,100,0.587,inactive
NR1I3,1,-1.09,60.1,-0.196,inactive
NR1I3,2,-1.16,58.8,-1.3,inactive
NR1I3,3,-0.39,74.1,-0.866,inactive
SEH1L,1,-0.667,68.6,-0.664,inactive
SEH1L,2,-1.11,59.8,-0.87,inactive
SEH1L,3,-1.49,52.3,-1.33,inactive
C9orf57,1,0.608,94,0.229,inactive
C9orf57,2,0.55,92.8,0.771,inactive
C9orf57,3,-0.1,79.9,-0.679,inactive
ADH4,1,-0.944,63.1,-0.662,inactive
ADH4,2,2.98,141,2.03,inactive
ADH4,3,-0.516,71.6,0.0701,inactive
